# Data published in the supplement of paper PMC8728848.
# This is one part of the list.
# B1: TAL6-6LysM (Trichoderma atroviride) (protein)
# chain: AASKLGVPQPAQRDQVNCQLYAVQPNDNCIDISSKNNITYAQLLSWNPSLSSTCSNLASLNSSSICVSNPKGTFSISSNTVGATDIATTTAPVPSPTLDQTTSRCAKYYQVSDGDDCSHLTAQFAITLKDFIFLNSEVWQNCTNLELGYYYCVEPVGYISTYPGYLPTATTKPFNQTSATSLPYDGDPWARFSSNSSVIPIANGTRVDCYSYVYVKNLTENLFADCWNMASMYEITREELVLWNPSLGNDGSSGSNLSGAEASQVASSIAIPTTAPSSITTNLYTYPCTVAANISYCVALVSSTGALPTNTAPPGPHASGEISNCTAWFAPEAYDTCKSILDIFEMSFANFYKMNPSVGPDCSGLAVGTNYCVSTYPNGEDPNDDWDGDDSIPSISPTGIITPTPTQSGMVSNCNKFYDVHSNDGCSAIASSQHVDLSSLYKWNPAIKTDCSGLQASVYVCIGILTTSMSTTSKLPTTTSKPSTTSKPPTGITTPTPTQSGMVKNCNKFYDVHSGDGCSAIASSQKVNLSSFYLWNPAVKTDCSGLQASVFVCIGTLTTSMSTTTSKLPTTTSKPSTTSKPPTGIITPTPTQNGMVKNCNKFYDVHSGDGCSAIASSQKVNLSSFYLWNPAVKTDCSGLQASVFVCVGTATTTTAAGITTPTPTQSGMVSGCNKFYDVHAGDGCSAIASSQKIALSSLYKWNPAVKTDCSGLQASVYICIGVGNAAAARVTGAAASFLEQKLISEEDLNSAVDHHHHHH
# What was measured:
# Assay in all cases: glycan array binding signal (z-score within array); higher = stronger binding
# Conditions in all cases: glycan notation: IUPAC condensed, linker removed
# [1] = molecular target: Fuc(a1-2)[Gal(a1-3)]Gal(b1-4)GlcNAc(b1-2)Man(a1-3)[Fuc(a1-2)[Gal(a1-3)]Gal(b1-4)GlcNAc(b1-2)Man(a1-6)]Man(b1-4)GlcNAc(b1-4)[Fuc(a1-6)]GlcNAc
# Summary of the method: (§1)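 The Consortium for Functional Glycomics database supplied 3228 glycan arrays, of which those lacking an available protein sequence were dropped. The binding signal, a within-array Z-score, was averaged across arrays of the same protein sequence and across linkers. Negative scores can be read as non-binding.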
# [2] = molecular target: Fuc(a1-2)[Gal(a1-3)]Gal(b1-4)GlcNAc(b1-3)GalNAc
# Summary of the method: as §1
# [3] = molecular target: Fuc(a1-2)[Gal(a1-3)]Gal(b1-4)GlcNAc(b1-3)[Fuc(a1-2)[Gal(a1-3)]Gal(b1-4)GlcNAc(b1-6)]GalNAc
# Summary of the method: as §1
# [4] = molecular target: Fuc(a1-2)[Gal(a1-3)]Gal(b1-4)GlcNAc(b1-6)GalNAc
# Summary of the method: as §1
# [5] = molecular target: Fuc(a1-2)[Gal(a1-3)]Gal(b1-4)[Fuc(a1-3)]Glc
# Summary of the method: as §1
# [6] = molecular target: Fuc(a1-2)[Gal(a1-3)]Gal(b1-4)[Fuc(a1-3)]GlcNAc
# Summary of the method: as §1
# [7] = molecular target: Fuc(a1-2)[Gal(a1-3)]Gal(b1-4)[Fuc(a1-3)]GlcNAc(b1-3)GalNAc
# Summary of the method: as §1
# [8] = molecular target: Fuc(a1-2)[Gal(a1-4)]Gal(b1-4)GlcNAc
# Summary of the method: as §1
# [9] = molecular target: Fuc(a1-2)[GalNAc(a1-3)]Gal
# Summary of the method: as §1
# [10] = molecular target: Fuc(a1-2)[GalNAc(a1-3)]Gal(b1-3)GalNAc(a1-3)[Fuc(a1-2)]Gal(b1-4)GlcNAc
# Summary of the method: as §1
# [11] = molecular target: Fuc(a1-2)[GalNAc(a1-3)]Gal(b1-3)GalNAc(b1-3)Gal(a1-4)Gal(b1-4)Glc
# Summary of the method: as §1
# [12] = molecular target: Fuc(a1-2)[GalNAc(a1-3)]Gal(b1-3)GlcNAc
# Summary of the method: as §1
# [13] = molecular target: Fuc(a1-2)[GalNAc(a1-3)]Gal(b1-3)GlcNAc(b1-2)Man(a1-3)[Fuc(a1-2)[GalNAc(a1-3)]Gal(b1-3)GlcNAc(b1-2)Man(a1-6)]Man(b1-4)GlcNAc(b1-4)GlcNAc
# Summary of the method: as §1
# [14] = molecular target: Fuc(a1-2)[GalNAc(a1-3)]Gal(b1-3)GlcNAc(b1-2)Man(a1-3)[Fuc(a1-2)[GalNAc(a1-3)]Gal(b1-3)GlcNAc(b1-2)Man(a1-6)]Man(b1-4)GlcNAc(b1-4)[Fuc(a1-6)]GlcNAc
# Summary of the method: as §1
# [15] = molecular target: Fuc(a1-2)[GalNAc(a1-3)]Gal(b1-3)GlcNAc(b1-3)GalNAc
# Summary of the method: as §1
# [16] = molecular target: Fuc(a1-2)[GalNAc(a1-3)]Gal(b1-3)GlcNAc(b1-6)GalNAc
# Summary of the method: as §1
# [17] = molecular target: Fuc(a1-2)[GalNAc(a1-3)]Gal(b1-4)Glc
# Summary of the method: as §1
# [18] = molecular target: Fuc(a1-2)[GalNAc(a1-3)]Gal(b1-4)GlcNAc
# Summary of the method: as §1
# [19] = molecular target: Fuc(a1-2)[GalNAc(a1-3)]Gal(b1-4)GlcNAc(b1-2)Man
# Summary of the method: as §1
# [20] = molecular target: Fuc(a1-2)[GalNAc(a1-3)]Gal(b1-4)GlcNAc(b1-2)Man(a1-3)[Fuc(a1-2)[GalNAc(a1-3)]Gal(b1-4)GlcNAc(b1-2)Man(a1-6)]Man(b1-4)GlcNAc(b1-4)GlcNAc
# Summary of the method: as §1
# [21] = molecular target: Fuc(a1-2)[GalNAc(a1-3)]Gal(b1-4)GlcNAc(b1-2)Man(a1-3)[Fuc(a1-2)[GalNAc(a1-3)]Gal(b1-4)GlcNAc(b1-2)Man(a1-6)]Man(b1-4)GlcNAc(b1-4)[Fuc(a1-6)]GlcNAc
# Summary of the method: as §1
# [22] = molecular target: Fuc(a1-2)[GalNAc(a1-3)]Gal(b1-4)GlcNAc(b1-3)Gal(b1-4)GlcNAc
# Summary of the method: as §1
# [23] = molecular target: Fuc(a1-2)[GalNAc(a1-3)]Gal(b1-4)GlcNAc(b1-3)Gal(b1-4)GlcNAc(b1-3)Gal(b1-4)GlcNAc
# Summary of the method: as §1
# [24] = molecular target: Fuc(a1-2)[GalNAc(a1-3)]Gal(b1-4)GlcNAc(b1-3)GalNAc
# Summary of the method: as §1
# [25] = molecular target: Fuc(a1-2)[GalNAc(a1-3)]Gal(b1-4)GlcNAc(b1-3)[Fuc(a1-2)[GalNAc(a1-3)]Gal(b1-4)GlcNAc(b1-6)]GalNAc
# Summary of the method: as §1
# [26] = molecular target: Fuc(a1-2)[GalNAc(a1-3)]Gal(b1-4)GlcNAc(b1-6)GalNAc
# Summary of the method: as §1
# [27] = molecular target: Fuc(a1-2)[GalNAc(a1-3)]Gal(b1-4)[Fuc(a1-3)]GlcNAc
# Summary of the method: as §1
# [28] = molecular target: Fuc(a1-2)[GalNAc(a1-3)]Gal(b1-4)[Fuc(a1-3)]GlcNAc(b1-3)GalNAc
# Summary of the method: as §1
# [29] = molecular target: Fuc(a1-2)[GalNAc(a1-4)]Gal(b1-4)GlcNAc
# Summary of the method: as §1
# [30] = molecular target: Fuc(a1-2)[GalNAc(b1-3)]Gal
# Summary of the method: as §1
binder,measurement,setting,value
B1,glycan array binding signal (z-score),[1],1.7
same,glycan array binding signal (z-score),[2],-0.999
same,glycan array binding signal (z-score),[3],-0.724
same,glycan array binding signal (z-score),[4],-0.509
same,glycan array binding signal (z-score),[5],-0.694
same,glycan array binding signal (z-score),[6],-0.889
same,glycan array binding signal (z-score),[7],0.955
same,glycan array binding signal (z-score),[8],0.687
same,glycan array binding signal (z-score),[9],-0.757
same,glycan array binding signal (z-score),[10],-0.873
same,glycan array binding signal (z-score),[11],-0.404
same,glycan array binding signal (z-score),[12],0.347
same,glycan array binding signal (z-score),[13],-0.391
same,glycan array binding signal (z-score),[14],-1.06
same,glycan array binding signal (z-score),[15],0.204
same,glycan array binding signal (z-score),[16],1.12
same,glycan array binding signal (z-score),[17],-0.724
same,glycan array binding signal (z-score),[18],0.557
same,glycan array binding signal (z-score),[19],0.179
same,glycan array binding signal (z-score),[20],0.42
same,glycan array binding signal (z-score),[21],-2.02
same,glycan array binding signal (z-score),[22],-0.762
same,glycan array binding signal (z-score),[23],-0.144
same,glycan array binding signal (z-score),[24],-0.338
same,glycan array binding signal (z-score),[25],1.58
same,glycan array binding signal (z-score),[26],1.53
same,glycan array binding signal (z-score),[27],0.713
same,glycan array binding signal (z-score),[28],-0.108
same,glycan array binding signal (z-score),[29],-0.239
same,glycan array binding signal (z-score),[30],-0.198

# Another view of part of the listing above.
binder | measurement | setting | value
B1 | glycan array binding signal (z-score) | [8] | 0.687
same | glycan array binding signal (z-score) | [9] | -0.757
same | glycan array binding signal (z-score) | [10] | -0.873
same | glycan array binding signal (z-score) | [11] | -0.404
same | glycan array binding signal (z-score) | [12] | 0.347
